No constants are given. Whether binding was seen depends on the method and setting. For part of these data: In cells and extracts the contact can be indirect. Some binding calls cover weakened binding; strength is not graded here. Values belong to the molecule of their own block, whether it stands above or below them.
Assays:
[1] = molecular target: human CD44 extracellular domain (CD44-ECD, amino acids 21-220), labeled with Fc (human) (UniProt P16070); experiment: ELISA; both purified
[2] = molecular target: chondroitin sulfate proteoglycan 4 (CSPG4), soluble receptor protein (UniProt Q6UVK1); experiment: ELISA; both purified
[3] = molecular target: CD44 succinylated at lysine 158, endogenous in TcdB/FBD-treated THP-1-Mφ (human (endogenous in THP-1)) (UniProt P16070); experiment: co-IP

The chains behind the UniProt entries cited, without tags or fusion partners. Where a name states a change or a piece, a line headed by the entry shows the natural chain unless it says otherwise. Residues count along the entry.
UniProt P16070: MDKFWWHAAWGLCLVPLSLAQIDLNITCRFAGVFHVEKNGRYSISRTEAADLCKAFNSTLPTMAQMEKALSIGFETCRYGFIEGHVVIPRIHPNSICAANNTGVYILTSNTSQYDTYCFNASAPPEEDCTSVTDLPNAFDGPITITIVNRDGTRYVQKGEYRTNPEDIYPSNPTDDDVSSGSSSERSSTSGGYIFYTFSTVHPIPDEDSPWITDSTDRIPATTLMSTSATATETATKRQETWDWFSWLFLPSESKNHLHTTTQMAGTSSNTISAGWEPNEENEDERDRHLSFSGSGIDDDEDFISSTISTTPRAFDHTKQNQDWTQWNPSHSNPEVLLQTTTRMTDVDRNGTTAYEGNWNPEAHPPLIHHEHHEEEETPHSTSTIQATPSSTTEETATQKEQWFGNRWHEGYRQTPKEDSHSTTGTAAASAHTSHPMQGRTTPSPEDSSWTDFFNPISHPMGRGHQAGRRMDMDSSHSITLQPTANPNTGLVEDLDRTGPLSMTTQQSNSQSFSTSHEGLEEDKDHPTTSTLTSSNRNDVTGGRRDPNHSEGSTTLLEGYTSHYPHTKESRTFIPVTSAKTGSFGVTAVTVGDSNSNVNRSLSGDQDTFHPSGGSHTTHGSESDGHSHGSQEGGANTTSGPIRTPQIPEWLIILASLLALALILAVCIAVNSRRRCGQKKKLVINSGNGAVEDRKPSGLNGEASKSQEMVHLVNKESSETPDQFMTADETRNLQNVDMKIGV
CD44 succinylated at lysine 158, endogenous in TcdB/FBD-treated THP-1-Mφ (human (endogenous in THP-1)): residues 21-742 of P16070
human CD44 extracellular domain (CD44-ECD, amino acids 21-220), labeled with Fc: residues 21-220 of P16070
UniProt Q6UVK1, residues 30-2224: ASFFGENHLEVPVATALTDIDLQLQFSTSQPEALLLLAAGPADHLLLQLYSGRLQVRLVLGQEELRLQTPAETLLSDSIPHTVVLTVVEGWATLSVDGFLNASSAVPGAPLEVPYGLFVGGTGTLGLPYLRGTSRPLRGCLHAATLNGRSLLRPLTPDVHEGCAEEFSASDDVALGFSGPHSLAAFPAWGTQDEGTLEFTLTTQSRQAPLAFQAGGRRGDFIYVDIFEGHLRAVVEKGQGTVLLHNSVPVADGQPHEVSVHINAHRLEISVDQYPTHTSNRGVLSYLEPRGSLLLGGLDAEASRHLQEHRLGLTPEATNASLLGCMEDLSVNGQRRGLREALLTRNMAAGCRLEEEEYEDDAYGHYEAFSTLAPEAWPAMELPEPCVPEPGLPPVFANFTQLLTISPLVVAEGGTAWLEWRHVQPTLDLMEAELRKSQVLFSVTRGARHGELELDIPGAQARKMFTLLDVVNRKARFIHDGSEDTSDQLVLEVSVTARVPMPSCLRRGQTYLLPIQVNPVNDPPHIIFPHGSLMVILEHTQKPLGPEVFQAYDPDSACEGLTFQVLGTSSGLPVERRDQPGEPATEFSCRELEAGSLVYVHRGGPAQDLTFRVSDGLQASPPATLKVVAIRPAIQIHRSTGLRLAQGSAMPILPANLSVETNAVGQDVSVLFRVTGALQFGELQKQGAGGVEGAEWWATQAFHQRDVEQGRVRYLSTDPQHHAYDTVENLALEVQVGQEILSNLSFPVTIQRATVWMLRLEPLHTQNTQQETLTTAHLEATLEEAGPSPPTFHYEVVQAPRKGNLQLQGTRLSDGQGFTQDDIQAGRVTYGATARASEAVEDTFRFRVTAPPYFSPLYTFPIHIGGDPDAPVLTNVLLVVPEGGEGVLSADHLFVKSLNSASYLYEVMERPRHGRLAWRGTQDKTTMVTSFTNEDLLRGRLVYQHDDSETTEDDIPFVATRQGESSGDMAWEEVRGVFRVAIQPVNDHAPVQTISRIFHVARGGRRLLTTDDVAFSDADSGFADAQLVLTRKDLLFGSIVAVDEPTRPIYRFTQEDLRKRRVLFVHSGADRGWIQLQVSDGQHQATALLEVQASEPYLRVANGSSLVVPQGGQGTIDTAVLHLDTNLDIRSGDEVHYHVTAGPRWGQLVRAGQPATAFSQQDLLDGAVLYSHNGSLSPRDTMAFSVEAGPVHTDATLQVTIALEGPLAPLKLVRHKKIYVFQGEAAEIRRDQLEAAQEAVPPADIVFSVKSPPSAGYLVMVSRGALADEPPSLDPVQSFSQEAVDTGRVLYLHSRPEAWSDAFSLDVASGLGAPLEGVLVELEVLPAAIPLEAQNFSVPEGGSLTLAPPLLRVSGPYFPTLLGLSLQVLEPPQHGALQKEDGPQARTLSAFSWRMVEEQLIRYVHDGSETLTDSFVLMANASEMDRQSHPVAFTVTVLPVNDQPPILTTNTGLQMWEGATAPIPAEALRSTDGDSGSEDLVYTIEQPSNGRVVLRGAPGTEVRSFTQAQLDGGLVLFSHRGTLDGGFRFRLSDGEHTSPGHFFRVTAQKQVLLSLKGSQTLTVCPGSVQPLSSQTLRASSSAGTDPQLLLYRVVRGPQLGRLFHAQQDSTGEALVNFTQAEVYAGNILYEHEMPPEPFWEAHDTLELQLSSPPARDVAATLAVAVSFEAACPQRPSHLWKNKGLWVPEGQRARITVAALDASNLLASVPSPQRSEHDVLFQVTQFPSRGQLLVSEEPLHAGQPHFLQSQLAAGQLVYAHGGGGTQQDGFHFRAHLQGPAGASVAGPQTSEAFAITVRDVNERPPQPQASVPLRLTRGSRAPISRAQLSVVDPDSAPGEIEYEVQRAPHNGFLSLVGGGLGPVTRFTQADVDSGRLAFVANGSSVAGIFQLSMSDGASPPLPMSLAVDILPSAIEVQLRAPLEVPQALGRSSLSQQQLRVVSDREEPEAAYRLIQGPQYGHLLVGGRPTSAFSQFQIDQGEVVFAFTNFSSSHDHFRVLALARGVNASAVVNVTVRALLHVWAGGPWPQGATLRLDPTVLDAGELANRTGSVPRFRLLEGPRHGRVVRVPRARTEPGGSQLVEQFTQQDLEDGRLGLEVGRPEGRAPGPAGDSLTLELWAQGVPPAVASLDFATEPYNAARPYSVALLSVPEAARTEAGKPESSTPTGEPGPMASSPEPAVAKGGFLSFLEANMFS
UniProt P18177: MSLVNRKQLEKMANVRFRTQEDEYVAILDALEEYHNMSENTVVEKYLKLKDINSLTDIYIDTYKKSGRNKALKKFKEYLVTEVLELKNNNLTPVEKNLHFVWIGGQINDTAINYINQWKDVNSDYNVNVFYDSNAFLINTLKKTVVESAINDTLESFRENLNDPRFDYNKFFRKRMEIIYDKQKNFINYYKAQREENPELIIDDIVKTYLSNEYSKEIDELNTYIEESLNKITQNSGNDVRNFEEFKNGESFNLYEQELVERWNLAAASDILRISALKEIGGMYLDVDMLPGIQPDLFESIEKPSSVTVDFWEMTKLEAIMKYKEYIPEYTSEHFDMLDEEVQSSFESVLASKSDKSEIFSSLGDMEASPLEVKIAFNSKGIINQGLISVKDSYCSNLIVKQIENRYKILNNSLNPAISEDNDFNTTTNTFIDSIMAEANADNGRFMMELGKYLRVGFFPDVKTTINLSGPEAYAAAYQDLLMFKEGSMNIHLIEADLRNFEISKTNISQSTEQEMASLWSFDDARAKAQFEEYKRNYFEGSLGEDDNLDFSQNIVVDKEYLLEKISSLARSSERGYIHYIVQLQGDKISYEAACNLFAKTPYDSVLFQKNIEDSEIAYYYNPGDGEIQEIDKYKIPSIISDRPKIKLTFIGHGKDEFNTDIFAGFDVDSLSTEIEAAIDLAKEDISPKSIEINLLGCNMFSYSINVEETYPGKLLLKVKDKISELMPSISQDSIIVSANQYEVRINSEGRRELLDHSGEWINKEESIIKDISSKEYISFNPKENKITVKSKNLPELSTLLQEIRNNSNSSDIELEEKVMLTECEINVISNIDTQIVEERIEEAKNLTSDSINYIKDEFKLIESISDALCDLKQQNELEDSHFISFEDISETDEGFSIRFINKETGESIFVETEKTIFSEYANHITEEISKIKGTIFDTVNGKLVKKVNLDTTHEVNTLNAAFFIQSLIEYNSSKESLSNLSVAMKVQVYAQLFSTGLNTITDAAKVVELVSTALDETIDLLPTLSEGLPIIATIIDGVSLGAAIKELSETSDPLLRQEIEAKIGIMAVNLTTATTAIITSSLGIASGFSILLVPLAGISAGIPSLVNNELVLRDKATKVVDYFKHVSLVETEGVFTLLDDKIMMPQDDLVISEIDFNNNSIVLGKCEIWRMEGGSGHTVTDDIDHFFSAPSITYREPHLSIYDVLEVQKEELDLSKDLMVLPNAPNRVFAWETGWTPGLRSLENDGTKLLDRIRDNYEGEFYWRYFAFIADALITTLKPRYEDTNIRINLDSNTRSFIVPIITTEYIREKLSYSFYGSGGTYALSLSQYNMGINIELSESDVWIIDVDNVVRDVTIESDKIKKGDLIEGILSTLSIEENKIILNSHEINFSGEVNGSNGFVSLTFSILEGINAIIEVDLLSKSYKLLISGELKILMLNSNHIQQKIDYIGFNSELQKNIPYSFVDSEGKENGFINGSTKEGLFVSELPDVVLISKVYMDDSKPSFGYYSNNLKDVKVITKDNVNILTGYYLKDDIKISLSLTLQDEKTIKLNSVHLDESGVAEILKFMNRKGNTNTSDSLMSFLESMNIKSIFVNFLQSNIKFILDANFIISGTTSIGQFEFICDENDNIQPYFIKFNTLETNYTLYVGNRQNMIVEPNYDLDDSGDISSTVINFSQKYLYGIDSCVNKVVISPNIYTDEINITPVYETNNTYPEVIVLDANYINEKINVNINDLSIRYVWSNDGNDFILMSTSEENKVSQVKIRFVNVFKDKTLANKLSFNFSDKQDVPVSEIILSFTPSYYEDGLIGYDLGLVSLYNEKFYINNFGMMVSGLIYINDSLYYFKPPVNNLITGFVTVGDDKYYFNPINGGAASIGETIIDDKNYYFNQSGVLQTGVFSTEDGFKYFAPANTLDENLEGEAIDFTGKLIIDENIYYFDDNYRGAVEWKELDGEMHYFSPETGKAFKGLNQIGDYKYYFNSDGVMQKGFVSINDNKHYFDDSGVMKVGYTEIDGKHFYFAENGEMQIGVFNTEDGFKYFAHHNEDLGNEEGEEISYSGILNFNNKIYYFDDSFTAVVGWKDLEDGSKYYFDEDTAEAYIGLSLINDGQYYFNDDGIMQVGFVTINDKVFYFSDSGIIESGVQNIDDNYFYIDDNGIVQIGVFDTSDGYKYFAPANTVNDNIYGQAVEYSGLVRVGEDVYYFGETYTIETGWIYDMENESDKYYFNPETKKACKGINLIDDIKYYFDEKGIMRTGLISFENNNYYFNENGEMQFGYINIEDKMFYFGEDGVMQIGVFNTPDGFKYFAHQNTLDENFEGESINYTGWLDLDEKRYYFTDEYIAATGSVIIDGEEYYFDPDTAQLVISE

Molecule: Toxin B (TcdB) from Clostridioides difficile, native full-length (from UniProt P18177 1-2366)
- binding [1]: binds
- binding [2]: binds

- binding [3]: binds
B1: SUCLG2, endogenous in THP-1-Mφ (enzyme, UniProt Q96I99 38-432)
chain: LNLQEYQSKKLMSDNGVRVQRFFVADTANEALEAAKRLNAKEIVLKAQILAGGRGKGVFNSGLKGGVHLTKDPNVVGQLAKQMIGYNLATKQTPKEGVKVNKVMVAEALDISRETYLAILMDRSCNGPVLVGSPQGGVDIEEVAASNPELIFKEQIDIFEGIKDSQAQRMAENLGFVGPLKSQAADQITKLYNLFLKIDATQVEVNPFGETPEGQVVCFDAKINFDDNAEFRQKDIFAMDDKSENEPIENEAAKYDLKYIGLDGNIACFVNGAGLAMATCDIIFLNGGKPANFLDLGGGVKEAQVYQAFKLLTADPKVEAILVNIFGGIVNCAIIANGITKACRELELKVPLVVRLEGTNVQEAQKILNNSGLPITSAIDLEDAAKKAVASVAKK
